Consider 1 molecule from paper PMC12235606.

These are yes or no findings as the source states them, for the method shown. In cells and extracts the contact can be indirect. Some entries that bind do so weakly or less than the wild type.

This assay deals with T1, Ribonucleotide reductase regulatory subunit M2 (RRM2) (human (endogenous in A2780/DDP)) (UniProt P31350).
T1 sequence: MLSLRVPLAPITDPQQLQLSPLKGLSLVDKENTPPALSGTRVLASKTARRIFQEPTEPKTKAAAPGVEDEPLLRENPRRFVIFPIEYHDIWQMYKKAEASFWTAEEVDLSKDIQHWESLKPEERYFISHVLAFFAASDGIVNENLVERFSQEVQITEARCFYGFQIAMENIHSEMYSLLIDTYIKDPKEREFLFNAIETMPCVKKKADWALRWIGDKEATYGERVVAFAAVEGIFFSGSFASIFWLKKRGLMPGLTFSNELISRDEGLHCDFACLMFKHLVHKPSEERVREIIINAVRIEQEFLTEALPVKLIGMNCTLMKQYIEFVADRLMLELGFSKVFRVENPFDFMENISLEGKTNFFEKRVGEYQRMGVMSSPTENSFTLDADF
Briefly: co-IP; A2780/DDP cell lysates (Western blotting and IP lysis buffer with protease inhibitors) incubated overnight with Protein A + G beads carrying anti-RRM2 antibody or normal IgG; washed four times; Western blot for RRM2 and CDCA7. (In general: In western blotting, separated proteins are transferred to a membrane and probed.)

B1: cell division cycle associated 7 (CDCA7) (protein, UniProt Q9BWT1 1-371)
chain: MDARRVPQKDLRVKKNLKKFRYVKLISMETSSSSDDSCDSFASDNFANTRLQSVREGCRTRSQCRHSGPLRVAMKFPARSTRGATNKKAESRQPSENSVTDSNSDSEDESGMNFLEKRALNIKQNKAMLAKLMSELESFPGSFRGRHPLPGSDSQSRRPRRRTFPGVASRRNPERRARPLTRSRSRILGSLDALPMEEEEEEDKYMLVRKRKTVDGYMNEDDLPRSRRSRSSVTLPHIIRPVEEITEEELENVCSNSREKIYNRSLGSTCHQCRQKTIDTKTNCRNPDCWGVRGQFCGPCLRNRYGEEVRDALLDPNWHCPPCRGICNCSFCRQRDGRCATGVLVYLAKYHGFGNVHAYLKSLKQEFEMQA
For B1, the binding result is reported as “binds”.
